The values that follow come from the supplement of paper PMC12067093, “Discovery and optimisation of a covalent ligand for TRIM25 and its application to targeted protein ubiquitination” (Chemical Science, 2025).

Protein sequences, listed by entry. Tags and fused reporters are not part of them. Lines headed by an entry give the natural chain unless they say otherwise; changes in a name come on top.
UniProt P49790, whole entry, looked up: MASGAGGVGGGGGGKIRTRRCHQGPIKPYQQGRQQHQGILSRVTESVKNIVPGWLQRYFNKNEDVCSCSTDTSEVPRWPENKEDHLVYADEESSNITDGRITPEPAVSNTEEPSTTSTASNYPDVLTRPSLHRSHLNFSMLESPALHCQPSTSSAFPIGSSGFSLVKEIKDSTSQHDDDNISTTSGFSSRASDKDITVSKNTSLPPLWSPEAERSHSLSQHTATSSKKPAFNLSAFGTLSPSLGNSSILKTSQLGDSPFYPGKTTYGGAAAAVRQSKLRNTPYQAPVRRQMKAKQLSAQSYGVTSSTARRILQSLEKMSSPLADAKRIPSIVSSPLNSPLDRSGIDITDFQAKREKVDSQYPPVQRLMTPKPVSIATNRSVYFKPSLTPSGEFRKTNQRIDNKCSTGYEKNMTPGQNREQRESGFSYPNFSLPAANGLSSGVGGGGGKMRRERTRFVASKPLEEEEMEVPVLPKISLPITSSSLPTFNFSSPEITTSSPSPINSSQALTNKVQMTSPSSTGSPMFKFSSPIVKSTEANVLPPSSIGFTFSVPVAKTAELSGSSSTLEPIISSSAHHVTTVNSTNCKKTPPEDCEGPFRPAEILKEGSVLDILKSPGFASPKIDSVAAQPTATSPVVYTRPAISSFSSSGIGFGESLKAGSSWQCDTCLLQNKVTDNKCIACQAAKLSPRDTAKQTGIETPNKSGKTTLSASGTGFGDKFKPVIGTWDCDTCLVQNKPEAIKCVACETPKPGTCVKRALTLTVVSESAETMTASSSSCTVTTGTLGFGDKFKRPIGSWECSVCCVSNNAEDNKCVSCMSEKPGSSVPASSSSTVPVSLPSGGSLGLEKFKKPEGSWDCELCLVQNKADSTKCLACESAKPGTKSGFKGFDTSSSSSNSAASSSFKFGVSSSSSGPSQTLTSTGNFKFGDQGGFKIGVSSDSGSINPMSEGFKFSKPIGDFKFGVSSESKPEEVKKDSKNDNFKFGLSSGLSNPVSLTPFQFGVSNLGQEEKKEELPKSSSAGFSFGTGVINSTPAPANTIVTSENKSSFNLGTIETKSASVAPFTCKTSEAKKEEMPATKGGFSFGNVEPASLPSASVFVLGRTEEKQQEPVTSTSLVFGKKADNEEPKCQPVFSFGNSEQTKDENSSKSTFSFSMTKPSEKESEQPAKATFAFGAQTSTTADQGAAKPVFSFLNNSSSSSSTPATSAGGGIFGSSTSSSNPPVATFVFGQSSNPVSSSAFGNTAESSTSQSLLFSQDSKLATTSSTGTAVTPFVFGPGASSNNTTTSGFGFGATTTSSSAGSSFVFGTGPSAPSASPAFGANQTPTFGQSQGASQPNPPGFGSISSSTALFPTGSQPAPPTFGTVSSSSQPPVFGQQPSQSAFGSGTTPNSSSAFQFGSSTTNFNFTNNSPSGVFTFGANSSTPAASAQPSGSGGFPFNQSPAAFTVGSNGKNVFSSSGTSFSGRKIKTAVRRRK
UniProt Q5SRE5: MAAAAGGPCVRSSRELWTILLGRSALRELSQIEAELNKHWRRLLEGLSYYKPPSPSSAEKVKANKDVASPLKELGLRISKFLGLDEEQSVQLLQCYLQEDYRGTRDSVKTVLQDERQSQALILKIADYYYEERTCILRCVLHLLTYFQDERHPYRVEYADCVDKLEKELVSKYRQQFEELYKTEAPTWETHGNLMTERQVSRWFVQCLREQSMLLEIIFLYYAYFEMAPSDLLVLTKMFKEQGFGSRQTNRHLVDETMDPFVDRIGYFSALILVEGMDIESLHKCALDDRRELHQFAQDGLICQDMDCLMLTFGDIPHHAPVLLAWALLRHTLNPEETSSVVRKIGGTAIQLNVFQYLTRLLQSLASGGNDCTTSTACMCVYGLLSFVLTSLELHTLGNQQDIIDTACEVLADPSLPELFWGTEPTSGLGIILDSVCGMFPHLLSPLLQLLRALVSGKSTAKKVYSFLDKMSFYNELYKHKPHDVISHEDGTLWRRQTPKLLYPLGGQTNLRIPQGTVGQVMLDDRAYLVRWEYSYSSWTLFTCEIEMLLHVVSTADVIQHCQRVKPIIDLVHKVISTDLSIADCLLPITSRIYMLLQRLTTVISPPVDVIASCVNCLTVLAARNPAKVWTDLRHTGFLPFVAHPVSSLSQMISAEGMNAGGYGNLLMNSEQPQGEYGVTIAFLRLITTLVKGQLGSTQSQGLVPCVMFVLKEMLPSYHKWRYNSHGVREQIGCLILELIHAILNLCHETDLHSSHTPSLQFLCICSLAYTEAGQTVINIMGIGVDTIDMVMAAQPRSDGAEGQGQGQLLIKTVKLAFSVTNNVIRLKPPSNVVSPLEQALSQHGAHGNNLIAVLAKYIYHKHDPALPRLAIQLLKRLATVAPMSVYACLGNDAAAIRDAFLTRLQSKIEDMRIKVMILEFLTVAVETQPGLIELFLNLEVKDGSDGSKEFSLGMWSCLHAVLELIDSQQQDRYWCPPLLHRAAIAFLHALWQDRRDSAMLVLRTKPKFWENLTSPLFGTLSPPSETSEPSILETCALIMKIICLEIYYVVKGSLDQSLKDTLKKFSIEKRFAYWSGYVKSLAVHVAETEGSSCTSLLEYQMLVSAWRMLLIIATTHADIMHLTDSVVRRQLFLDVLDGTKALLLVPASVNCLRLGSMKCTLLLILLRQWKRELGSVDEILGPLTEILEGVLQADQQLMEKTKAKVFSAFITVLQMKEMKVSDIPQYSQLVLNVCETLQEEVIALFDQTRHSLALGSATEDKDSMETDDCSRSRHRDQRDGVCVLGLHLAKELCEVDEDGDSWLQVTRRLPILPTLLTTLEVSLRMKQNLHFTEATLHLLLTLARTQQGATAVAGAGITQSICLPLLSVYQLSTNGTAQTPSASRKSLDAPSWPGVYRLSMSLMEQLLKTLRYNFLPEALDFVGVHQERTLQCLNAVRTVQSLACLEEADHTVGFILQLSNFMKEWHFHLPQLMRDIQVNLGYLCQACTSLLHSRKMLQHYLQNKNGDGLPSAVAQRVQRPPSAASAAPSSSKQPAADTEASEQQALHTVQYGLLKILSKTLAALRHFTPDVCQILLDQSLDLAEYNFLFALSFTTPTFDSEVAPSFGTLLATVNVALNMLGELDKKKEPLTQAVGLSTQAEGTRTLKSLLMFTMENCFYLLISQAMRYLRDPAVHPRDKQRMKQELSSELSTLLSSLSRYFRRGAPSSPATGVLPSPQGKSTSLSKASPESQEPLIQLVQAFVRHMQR
UniProt Q14980: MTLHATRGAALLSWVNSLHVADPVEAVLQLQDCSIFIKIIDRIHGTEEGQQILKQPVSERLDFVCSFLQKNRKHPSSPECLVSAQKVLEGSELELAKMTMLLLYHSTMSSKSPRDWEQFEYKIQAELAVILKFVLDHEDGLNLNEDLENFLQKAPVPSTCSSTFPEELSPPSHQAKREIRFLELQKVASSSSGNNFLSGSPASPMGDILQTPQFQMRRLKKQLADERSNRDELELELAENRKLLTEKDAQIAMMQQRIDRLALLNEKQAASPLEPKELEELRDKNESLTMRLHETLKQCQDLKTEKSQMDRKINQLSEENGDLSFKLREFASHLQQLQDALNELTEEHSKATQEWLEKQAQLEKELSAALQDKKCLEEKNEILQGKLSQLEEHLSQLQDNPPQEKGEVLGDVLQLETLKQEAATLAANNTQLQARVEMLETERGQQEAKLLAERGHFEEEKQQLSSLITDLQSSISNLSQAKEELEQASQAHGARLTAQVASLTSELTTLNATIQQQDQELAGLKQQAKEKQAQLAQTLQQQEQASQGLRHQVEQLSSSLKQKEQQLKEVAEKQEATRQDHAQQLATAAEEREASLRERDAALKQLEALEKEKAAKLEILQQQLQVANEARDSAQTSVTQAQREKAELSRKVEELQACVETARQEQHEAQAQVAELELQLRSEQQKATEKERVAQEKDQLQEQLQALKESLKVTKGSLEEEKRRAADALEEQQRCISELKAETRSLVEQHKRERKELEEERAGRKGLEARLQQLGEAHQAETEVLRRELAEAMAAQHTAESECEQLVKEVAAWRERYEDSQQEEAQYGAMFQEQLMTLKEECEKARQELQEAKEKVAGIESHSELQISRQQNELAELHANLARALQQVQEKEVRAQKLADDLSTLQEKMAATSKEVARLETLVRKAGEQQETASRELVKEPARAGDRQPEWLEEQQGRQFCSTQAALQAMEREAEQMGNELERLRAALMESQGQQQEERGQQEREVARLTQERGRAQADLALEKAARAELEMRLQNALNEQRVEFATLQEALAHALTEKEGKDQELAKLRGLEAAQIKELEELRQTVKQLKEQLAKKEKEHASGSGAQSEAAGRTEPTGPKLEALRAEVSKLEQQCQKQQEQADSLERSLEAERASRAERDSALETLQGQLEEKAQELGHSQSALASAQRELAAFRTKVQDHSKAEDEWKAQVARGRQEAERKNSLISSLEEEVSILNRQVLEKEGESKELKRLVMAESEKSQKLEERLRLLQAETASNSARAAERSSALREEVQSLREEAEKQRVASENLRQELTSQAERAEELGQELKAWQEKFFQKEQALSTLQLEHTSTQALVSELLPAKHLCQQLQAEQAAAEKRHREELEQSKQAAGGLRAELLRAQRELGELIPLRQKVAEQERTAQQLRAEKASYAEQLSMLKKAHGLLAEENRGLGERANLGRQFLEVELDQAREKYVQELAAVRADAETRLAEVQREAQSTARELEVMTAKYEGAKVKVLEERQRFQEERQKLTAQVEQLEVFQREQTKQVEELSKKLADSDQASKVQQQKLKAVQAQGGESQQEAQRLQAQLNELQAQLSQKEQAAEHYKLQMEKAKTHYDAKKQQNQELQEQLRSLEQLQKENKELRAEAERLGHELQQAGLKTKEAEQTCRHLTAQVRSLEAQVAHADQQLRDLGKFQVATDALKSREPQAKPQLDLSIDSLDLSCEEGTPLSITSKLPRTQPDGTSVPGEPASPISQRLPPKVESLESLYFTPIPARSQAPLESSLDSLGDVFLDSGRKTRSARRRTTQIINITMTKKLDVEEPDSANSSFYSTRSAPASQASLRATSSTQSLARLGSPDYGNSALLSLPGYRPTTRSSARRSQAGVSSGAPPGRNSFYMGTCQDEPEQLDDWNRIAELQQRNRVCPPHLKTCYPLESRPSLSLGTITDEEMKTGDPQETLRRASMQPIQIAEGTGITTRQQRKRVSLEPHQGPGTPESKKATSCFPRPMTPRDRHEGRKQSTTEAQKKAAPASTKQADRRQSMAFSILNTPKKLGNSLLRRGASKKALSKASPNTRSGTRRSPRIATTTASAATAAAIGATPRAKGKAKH
UniProt Q9Y6K5: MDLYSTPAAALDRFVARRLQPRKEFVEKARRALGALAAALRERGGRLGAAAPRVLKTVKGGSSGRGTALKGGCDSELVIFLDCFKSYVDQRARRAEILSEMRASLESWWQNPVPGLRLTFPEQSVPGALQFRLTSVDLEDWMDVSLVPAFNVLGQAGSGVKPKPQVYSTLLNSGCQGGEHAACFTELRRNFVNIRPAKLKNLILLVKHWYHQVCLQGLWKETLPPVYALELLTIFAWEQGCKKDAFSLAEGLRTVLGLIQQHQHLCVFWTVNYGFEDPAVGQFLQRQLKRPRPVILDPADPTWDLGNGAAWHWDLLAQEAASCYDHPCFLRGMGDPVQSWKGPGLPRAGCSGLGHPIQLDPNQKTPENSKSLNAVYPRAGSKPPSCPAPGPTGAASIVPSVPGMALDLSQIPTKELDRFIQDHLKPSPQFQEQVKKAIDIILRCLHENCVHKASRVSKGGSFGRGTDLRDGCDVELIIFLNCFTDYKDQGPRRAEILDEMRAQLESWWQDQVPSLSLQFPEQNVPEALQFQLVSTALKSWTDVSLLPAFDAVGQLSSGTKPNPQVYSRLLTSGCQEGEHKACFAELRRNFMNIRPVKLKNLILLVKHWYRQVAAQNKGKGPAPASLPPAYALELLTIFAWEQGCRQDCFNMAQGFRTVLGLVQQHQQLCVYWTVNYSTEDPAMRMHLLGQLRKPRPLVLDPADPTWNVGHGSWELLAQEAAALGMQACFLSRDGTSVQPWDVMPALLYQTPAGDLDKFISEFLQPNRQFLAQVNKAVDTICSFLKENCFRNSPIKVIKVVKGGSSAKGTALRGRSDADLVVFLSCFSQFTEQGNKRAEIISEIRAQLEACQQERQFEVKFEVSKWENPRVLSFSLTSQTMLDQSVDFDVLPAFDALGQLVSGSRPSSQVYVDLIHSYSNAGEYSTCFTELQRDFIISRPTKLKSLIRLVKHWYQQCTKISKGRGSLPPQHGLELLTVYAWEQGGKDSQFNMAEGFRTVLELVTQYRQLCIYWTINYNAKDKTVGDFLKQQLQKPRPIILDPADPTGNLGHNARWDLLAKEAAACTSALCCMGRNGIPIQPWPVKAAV
UniProt Q56VL3: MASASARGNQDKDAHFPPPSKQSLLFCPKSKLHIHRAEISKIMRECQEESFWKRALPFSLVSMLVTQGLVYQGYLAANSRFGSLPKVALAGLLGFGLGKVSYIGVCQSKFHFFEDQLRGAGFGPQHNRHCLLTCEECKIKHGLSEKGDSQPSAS

Compound in the assay: CC1Cc2ccccc2N1C(=O)C1CCCN(C1)C(=O)CCl (mixture of isomers) [TRIM25 ligand 11 (diastereomer mixture)]
As to the kind of experiment: probe-labelled cysteine peptide fold change vs DMSO (competition) (log2 fold change); higher = less target engagement (more negative = stronger competition). The settings on record: THP-1, incubation time: 4 h.

This is one part of the list.
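Note: competitive chemoproteomic profiling in live THP-1 cells with an iodoacetamide desthiobiotin (IA-DTB) probe, comparing probe-labelled peptide intensities in compound-treated cells against DMSO-treated controls.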

Regarding “NUDT16L1_Q9BRJ7_171_CQLLFALK (UniProt Q9BRJ7)”, the “probe-labelled cysteine peptide fold change” value is -0.0516 (10 µM) and 0.122 (50 µM).
Turning to “NUP153_P49790_871+874_CLACESAKPGTK (UniProt P49790)”, the “probe-labelled cysteine peptide fold change” value is -0.0172 (10 µM) and 0.0935 (50 µM).
Regarding “OCRL_Q01968_370_FVFHNTTFCIVNSHLAAHVEDFER (UniProt Q01968)”, the “probe-labelled cysteine peptide fold change” value was determined as 0.316 (10 µM) and 0.293 (50 µM).
As for “NUF2_Q9BZD4_377_TVIEDCNK (UniProt Q9BZD4)”, the “probe-labelled cysteine peptide fold change” value reads like this: (10 µM) 0.0266; (50 µM) -0.0213.
For “OGDH_Q02218_331_ELEQIFCQFDSK (UniProt Q02218)”, the “probe-labelled cysteine peptide fold change” value is, setting by setting: (10 µM) 0.0951; (50 µM) 0.129.
“NUP188_Q5SRE5_95_FLGLDEEQSVQLLQCYLQEDYR (UniProt Q5SRE5)”: the “probe-labelled cysteine peptide fold change” value was -0.135 (10 µM) and -0.137 (50 µM).
On the same counts, the results for “NUP85_Q9BW27_603_CLEDLTSR (UniProt Q9BW27)” are 0.0545 and 0.135.
As for “OGFOD1_Q8N543_143_IDLESTIDMSCAK (UniProt Q8N543)”, the “probe-labelled cysteine peptide fold change” value by setting is: (10 µM) 0.216; (50 µM) 0.0501.
As to “NUP153_P49790_753_CVACETPKPGTCVK (UniProt P49790)”, the “probe-labelled cysteine peptide fold change” value reads like this: (10 µM) -0.08; (50 µM) -0.212.
Regarding “ODF2_Q5BJF6_327_DKEVEELLQEIQCEK (UniProt Q5BJF6)”, the “probe-labelled cysteine peptide fold change” value was -0.038 (10 µM) and -0.112 (50 µM).
On the same counts, the results for “NUMA1_Q14980_80_HPSSPECLVSAQK (UniProt Q14980)” are 0.106 and -0.0541.
Consider “NUDT14_O95848_127_EAWEECGYHLAPSDLR (UniProt O95848)”, for which the “probe-labelled cysteine peptide fold change” value is 0.0677 (10 µM) and -0.039 (50 µM).
“NUP214_P35658_1003_TSCKDDEAVVQAPR (UniProt P35658)”: the “probe-labelled cysteine peptide fold change” value (10 µM) is -0.0732 and the “probe-labelled cysteine peptide fold change” value (50 µM) is -0.222.
Regarding “NUP133_Q8WUM0_1075_LEILCK (UniProt Q8WUM0)”, the “probe-labelled cysteine peptide fold change” value runs as follows: (10 µM) 0.205; (50 µM) 0.252.
For the target “NUP188_Q5SRE5_161_VEYADCVDK (UniProt Q5SRE5)”, the “probe-labelled cysteine peptide fold change” value was found to be 0.394 (10 µM) and 0.321 (50 µM).
As for “NUP98_P52948_760_GECIVSDFTIGR (UniProt P52948)”, the “probe-labelled cysteine peptide fold change” value runs as follows: (10 µM) -0.00269; (50 µM) 0.00601.
Take “NTPCR_Q9BSD7_184_NHLLPDIVTCVQSSR (UniProt Q9BSD7)”: the “probe-labelled cysteine peptide fold change” value reads like this: (10 µM) -0.141; (50 µM) -0.0525.
Regarding “ODF2_Q5BJF6_136_KIDSLMNAVGCLK (UniProt Q5BJF6)”, the “probe-labelled cysteine peptide fold change” value is 0.0615 (10 µM) and -0.0363 (50 µM).
On to “OAS3_Q9Y6K5_350_AGCSGLGHPIQLDPNQK (UniProt Q9Y6K5)”, for which the “probe-labelled cysteine peptide fold change” value is -0.0319 (10 µM) and -0.0671 (50 µM).
Take “NUP160_Q12769_1309_VQNNLYHHCVINK (UniProt Q12769)”: the “probe-labelled cysteine peptide fold change” value stood at 0.17 (10 µM) and 0.227 (50 µM).
On the same counts, the results for “NUP88_Q99567_447+454_CFVEHILCTK (UniProt Q99567)” are 0.103 and 0.0339.
In the case of “NUP153_P49790_731_FKPVIGTWDCDTCLVQNKPEAIK (UniProt P49790)”, the “probe-labelled cysteine peptide fold change” value is 0.00899 (10 µM) and -0.00158 (50 µM).
Taken in the same sequence, the figures for “OAT_P04181_93_YFDFLSSYSAVNQGHCHPK (UniProt P04181)” were 0.0741 and 0.0781.
Take “NUDT6_P53370_44_NPPVGACDLQGELDR (UniProt P53370)”: the “probe-labelled cysteine peptide fold change” value (10 µM) amounted to 0.195 and the “probe-labelled cysteine peptide fold change” value (50 µM) was -0.149.
“NUS1_Q96E22_184_YSPEFANSNDKDDQVLNCHLAVK (UniProt Q96E22)”: the “probe-labelled cysteine peptide fold change” value by setting is: (10 µM) -0.0668; (50 µM) -0.00994.
On the same counts, the results for “NUP214_P35658_298_HPEIFVNFMEPCYGSCTER (UniProt P35658)” are 0.294 and -0.13.
As to “NUTF2_P61970_80_IQHSITAQDHQPTPDSCIISMVVGQLKADEDPIMGFHQMFLLK (UniProt P61970)”, the “probe-labelled cysteine peptide fold change” value is, setting by setting: (10 µM) -0.758; (50 µM) -0.409.
With “OAS3_Q9Y6K5_956_HWYQQCTK (UniProt Q9Y6K5)”, the “probe-labelled cysteine peptide fold change” value was -0.273 (10 µM) and -0.0723 (50 µM).
On the same counts, the results for “NUP43_Q8NFH3_362_SLSVNTLDVLGPCLVCGTDAEAIYVTR (UniProt Q8NFH3)” are -0.244 and -0.109.
Turning to “OGA_O60502_863_SMMACLLSSLK (UniProt O60502)”, the “probe-labelled cysteine peptide fold change” value reads like this: (10 µM) -0.0745; (50 µM) 0.0112.
Turning to “OCIAD2_Q56VL3_130_HCLLTCEECK (UniProt Q56VL3)”, the “probe-labelled cysteine peptide fold change” value was 0.0401 (10 µM) and -0.0916 (50 µM).
Take “NUP155_O75694_433_GILLMAASENEDNDILWCVNHDTFPFQK (UniProt O75694)”: the “probe-labelled cysteine peptide fold change” value by setting is: (10 µM) 0.296; (50 µM) 0.122.
Regarding “NUMB_P49757_160_LSHAVGCAFAACLER (UniProt P49757)”, the “probe-labelled cysteine peptide fold change” value (10 µM) is -0.143 and the “probe-labelled cysteine peptide fold change” value (50 µM) was determined as 0.0504.
Consider “NUMA1_Q14980_160_APVPSTCSSTFPEELSPPSHQAK (UniProt Q14980)”, for which the “probe-labelled cysteine peptide fold change” value is 0.0318 (10 µM) and -0.167 (50 µM).
On the same counts, the results for “NTHL1_P78549_290_ELWHEINGLLVGFGQQTCLPVHPR (UniProt P78549)” are 0.179 and 0.162.
For the target “OAS2_P29728_210_HWHQQCQK (UniProt P29728)”, the “probe-labelled cysteine peptide fold change” value (10 µM) is -0.27 and the “probe-labelled cysteine peptide fold change” value (50 µM) worked out at 0.109.
As for “NUP88_Q99567_447+454_CFVEHILCTKPLPCR (UniProt Q99567)”, the “probe-labelled cysteine peptide fold change” value by setting is: (10 µM) 0.0844; (50 µM) -0.0996.
